The values below come from PMC10465003, “The AAA-ATPase Yta4/ATAD1 interacts with the mitochondrial divisome to inhibit mitochondrial fission” (PLOS Biology, 2023).

Experiment [1] deals with T1, GST-Mdv1(319–651) (Schizosaccharomyces pombe) (UniProt Q9P7I3).
T1 sequence: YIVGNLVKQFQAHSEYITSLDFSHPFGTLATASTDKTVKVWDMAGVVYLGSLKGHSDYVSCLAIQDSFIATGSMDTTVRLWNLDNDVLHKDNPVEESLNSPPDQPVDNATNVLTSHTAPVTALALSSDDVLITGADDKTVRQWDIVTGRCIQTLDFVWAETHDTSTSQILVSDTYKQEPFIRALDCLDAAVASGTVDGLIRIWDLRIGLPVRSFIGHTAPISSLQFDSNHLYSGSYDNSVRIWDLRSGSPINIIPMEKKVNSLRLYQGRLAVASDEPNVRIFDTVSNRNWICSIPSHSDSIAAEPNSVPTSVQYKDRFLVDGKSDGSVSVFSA
Description: pull-down; GST-fused bait on glutathione Sepharose 4B resins, purified prey; TBST (0.5% Triton X-100) with 5% glycerol, 4°C, 2 h; western blot; both purified.

In experiment [2] the target is T2, GFP-Fis1 (Schizosaccharomyces pombe) (UniProt Q9USZ8).
T2 sequence: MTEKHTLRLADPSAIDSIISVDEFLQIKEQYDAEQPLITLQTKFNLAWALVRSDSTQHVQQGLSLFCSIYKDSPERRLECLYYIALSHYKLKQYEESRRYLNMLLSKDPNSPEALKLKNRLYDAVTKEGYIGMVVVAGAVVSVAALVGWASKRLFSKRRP
In words: co-IP; S. pombe cell lysate in TBS with 0.5% Triton X-100; antibodies against GFP or Dnm1 on Dynabeads protein G, 4°C, 2 h; western blot with antibodies against Myc, GFP and Dnm1.

For experiment [3], the target named is T3, GFP-Mdv1 (Schizosaccharomyces pombe) (UniProt Q9P7I3).
T3 sequence: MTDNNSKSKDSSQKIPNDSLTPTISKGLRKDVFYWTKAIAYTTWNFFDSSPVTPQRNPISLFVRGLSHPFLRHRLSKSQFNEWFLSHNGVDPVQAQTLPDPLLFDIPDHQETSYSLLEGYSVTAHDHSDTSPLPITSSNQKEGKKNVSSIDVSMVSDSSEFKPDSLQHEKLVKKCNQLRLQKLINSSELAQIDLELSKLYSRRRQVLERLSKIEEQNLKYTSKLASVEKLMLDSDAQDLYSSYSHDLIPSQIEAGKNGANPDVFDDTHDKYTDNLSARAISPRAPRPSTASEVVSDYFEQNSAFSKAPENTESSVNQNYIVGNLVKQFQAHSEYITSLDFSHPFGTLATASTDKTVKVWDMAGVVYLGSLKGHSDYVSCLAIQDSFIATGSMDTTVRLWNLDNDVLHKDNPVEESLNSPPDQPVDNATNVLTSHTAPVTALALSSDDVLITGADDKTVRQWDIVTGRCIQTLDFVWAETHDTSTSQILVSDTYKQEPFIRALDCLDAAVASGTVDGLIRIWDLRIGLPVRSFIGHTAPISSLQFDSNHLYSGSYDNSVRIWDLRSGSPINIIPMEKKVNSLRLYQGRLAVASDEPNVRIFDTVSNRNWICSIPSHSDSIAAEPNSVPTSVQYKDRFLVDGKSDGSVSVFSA
The experiment is described as above.

Experiment [4] has as its target T4, endogenous Dnm1 (Schizosaccharomyces pombe (endogenous in S. pombe cells)) (UniProt Q09748).
T4 sequence: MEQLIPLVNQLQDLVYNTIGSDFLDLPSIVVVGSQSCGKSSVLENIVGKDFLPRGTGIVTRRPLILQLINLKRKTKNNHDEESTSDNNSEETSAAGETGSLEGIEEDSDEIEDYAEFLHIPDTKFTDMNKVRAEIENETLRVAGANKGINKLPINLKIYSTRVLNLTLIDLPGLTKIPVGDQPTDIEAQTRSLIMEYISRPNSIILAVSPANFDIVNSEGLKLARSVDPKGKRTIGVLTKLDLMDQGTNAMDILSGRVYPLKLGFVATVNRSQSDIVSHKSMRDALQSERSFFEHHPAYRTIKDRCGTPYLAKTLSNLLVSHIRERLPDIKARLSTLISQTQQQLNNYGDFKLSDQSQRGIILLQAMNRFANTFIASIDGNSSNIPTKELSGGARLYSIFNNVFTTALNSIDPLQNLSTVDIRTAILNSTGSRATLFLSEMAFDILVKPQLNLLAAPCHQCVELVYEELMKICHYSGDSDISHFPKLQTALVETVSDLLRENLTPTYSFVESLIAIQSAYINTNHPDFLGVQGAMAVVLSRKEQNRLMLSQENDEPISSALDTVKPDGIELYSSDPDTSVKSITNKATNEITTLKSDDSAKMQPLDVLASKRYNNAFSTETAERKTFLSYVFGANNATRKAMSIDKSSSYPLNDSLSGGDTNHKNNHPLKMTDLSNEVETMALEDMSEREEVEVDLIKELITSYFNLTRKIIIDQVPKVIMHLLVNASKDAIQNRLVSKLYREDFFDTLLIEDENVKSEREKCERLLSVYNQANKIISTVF
Described as above.

For experiment [5], the target named is GST-Yta4(33–355) (Schizosaccharomyces pombe). Description: pull-down; GST-fused bait on glutathione resins, His-Fis1(a.a. 1–128) as prey; TBST with 5% glycerol and 40 mM imidazole, 4°C, 2 h; with Yta4 hexamers 0 or 1 mM ATP; both purified.
Experiment [6] shares this target. Description: pull-down; GST-fused bait on glutathione Sepharose 4B resins, purified prey; TBST (0.5% Triton X-100) with 5% glycerol, 4°C, 2 h; western blot; both purified. (In general: In western blotting, separated proteins are transferred to a membrane and probed.)

No constants are given. Whether binding was seen depends on the method and setting. Binding calls can cover weak binding; strength is not graded here. For part of these data: Tags and fused reporters may be left off the sequences shown. For part of these data: Binding seen in cells or lysates may run through a third protein.

Consider “His-Yta4(a.a. 33–355) (Schizosaccharomyces pombe) (domain or fragment)”, for which the binding result in experiment [1] is “binds”.

Turning to Yta4-13Myc (Schizosaccharomyces pombe), the binding entry in experiment [2], in experiment [3] and in experiment [4] was “binds” in each case.

B1: His-Fis1(1–128) (domain or fragment, Schizosaccharomyces pombe, UniProt Q9USZ8 1-128, looked up)
chain: MTEKHTLRLADPSAIDSIISVDEFLQIKEQYDAEQPLITLQTKFNLAWALVRSDSTQHVQQGLSLFCSIYKDSPERRLECLYYIALSHYKLKQYEESRRYLNMLLSKDPNSPEALKLKNRLYDAVTKE
notes: also called His-Fis1(∆TM); Fis1(∆TM); source: E. coli BL21, purified (Ni-NTA, size-exclusion chromatography); not shown: His tag, N-terminal, kept
Turning to B1, the binding result in experiment [5] was “binds”.

B2: Dnm1 (enzyme, Schizosaccharomyces pombe, UniProt Q09748 1-781, looked up)
chain: T4 sequence
notes: Dnm1, fission yeast dynamin-related GTPase; also called Dnm1(WT); recombinant Dnm1; source: E. coli Rosseta, purified (Ni-NTA, sumo protease, size-exclusion chromatography); not shown: His-sumo, N-terminal, cleaved
As to B2, the binding entry in experiment [6] was “binds”.
